The results in this text go back to PMC10759177.

By UniProt entry, the sequences of proteins in these tests, tags left out.
UniProt Q80TN5: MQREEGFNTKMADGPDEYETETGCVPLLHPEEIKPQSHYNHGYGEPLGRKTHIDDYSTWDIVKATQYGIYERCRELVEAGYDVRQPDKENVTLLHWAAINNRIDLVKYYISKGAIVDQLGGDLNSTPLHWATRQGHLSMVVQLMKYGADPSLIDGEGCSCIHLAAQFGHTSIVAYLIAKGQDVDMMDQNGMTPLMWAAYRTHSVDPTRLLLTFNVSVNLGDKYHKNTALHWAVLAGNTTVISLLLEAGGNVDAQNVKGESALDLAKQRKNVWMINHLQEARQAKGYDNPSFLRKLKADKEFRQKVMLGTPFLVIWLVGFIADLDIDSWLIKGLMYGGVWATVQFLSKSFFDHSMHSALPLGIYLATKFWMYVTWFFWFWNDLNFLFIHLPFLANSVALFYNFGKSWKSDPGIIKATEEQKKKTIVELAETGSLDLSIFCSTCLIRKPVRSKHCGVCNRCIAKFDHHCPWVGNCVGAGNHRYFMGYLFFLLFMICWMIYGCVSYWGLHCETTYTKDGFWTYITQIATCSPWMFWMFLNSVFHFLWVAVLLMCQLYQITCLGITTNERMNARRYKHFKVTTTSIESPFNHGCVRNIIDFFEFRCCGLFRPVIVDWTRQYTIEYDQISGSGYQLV

Where a chain is given by its changes, count along the chain named. These are yes or no findings as the source states them, for the method shown. Binding seen in cells or lysates may run through a third protein. Some entries that bind do so weakly or less than the wild type. Sequences can lack the tags named with a protein.

Assay [1] has as its target T1, Cys38Ala mouse diacylglycerol kinase-ε with a double Myc tag at the C terminus (mouse) (UniProt Q9R1C6).
T1 sequence: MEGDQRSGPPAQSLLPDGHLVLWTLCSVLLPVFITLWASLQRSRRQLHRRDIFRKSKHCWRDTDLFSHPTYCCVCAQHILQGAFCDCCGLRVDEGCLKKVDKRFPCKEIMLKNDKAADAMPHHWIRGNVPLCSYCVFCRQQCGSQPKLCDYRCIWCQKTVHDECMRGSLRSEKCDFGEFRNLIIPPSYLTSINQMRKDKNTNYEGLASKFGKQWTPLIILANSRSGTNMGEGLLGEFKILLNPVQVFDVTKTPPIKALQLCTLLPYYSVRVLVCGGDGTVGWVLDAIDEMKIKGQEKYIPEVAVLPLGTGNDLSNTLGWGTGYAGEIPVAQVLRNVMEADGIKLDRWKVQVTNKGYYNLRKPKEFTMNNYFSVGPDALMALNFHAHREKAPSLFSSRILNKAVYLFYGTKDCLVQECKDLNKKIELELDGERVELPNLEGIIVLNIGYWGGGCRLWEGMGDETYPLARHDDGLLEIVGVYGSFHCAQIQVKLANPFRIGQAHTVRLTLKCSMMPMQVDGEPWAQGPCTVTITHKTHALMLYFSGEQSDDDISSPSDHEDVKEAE
The assay can be described thus: co-IP; HEK293 cells coexpressing mDGKε-Myc variant and zDHHC17-HA (24 h); lysis in 150 mM NaCl, 20 mM Tris-HCl pH 7.4, 1% NP-40, 1 mM EDTA, 1 mM DTT; mDGKε-Myc immunoprecipitated on Myc-Trap Agarose, 3 h at 4°C; zDHHC17-HA revealed by immunoblotting.

In assay [2] the target is T2, wild-type mouse diacylglycerol kinase-ε with a double Myc tag at the C terminus (mouse) (UniProt Q9R1C6).
T2 sequence (chain, S-palmitoylated at Cys38 in a fraction of the molecules): T1 sequence with A38C
Described as above.

In the case of “HA-tagged mouse S-acyltransferase zDHHC17 (from UniProt Q80TN5 1-632) (enzyme)”, the binding entry in assay [1] and in assay [2] was “binds” in each case.
